Test results from the supplement of paper PMC6411743.
± gives the standard deviation of the averaged measurements. This is a selection; strong and weak results do not stand in their true shares. Most entries show no effect beyond the scatter of the controls.

Sequences of proteins named here, by UniProt entry; tags and fusion partners are left off. A change or cut given only in a name is not applied to a line headed by its entry.
UniProt Q9H6E5: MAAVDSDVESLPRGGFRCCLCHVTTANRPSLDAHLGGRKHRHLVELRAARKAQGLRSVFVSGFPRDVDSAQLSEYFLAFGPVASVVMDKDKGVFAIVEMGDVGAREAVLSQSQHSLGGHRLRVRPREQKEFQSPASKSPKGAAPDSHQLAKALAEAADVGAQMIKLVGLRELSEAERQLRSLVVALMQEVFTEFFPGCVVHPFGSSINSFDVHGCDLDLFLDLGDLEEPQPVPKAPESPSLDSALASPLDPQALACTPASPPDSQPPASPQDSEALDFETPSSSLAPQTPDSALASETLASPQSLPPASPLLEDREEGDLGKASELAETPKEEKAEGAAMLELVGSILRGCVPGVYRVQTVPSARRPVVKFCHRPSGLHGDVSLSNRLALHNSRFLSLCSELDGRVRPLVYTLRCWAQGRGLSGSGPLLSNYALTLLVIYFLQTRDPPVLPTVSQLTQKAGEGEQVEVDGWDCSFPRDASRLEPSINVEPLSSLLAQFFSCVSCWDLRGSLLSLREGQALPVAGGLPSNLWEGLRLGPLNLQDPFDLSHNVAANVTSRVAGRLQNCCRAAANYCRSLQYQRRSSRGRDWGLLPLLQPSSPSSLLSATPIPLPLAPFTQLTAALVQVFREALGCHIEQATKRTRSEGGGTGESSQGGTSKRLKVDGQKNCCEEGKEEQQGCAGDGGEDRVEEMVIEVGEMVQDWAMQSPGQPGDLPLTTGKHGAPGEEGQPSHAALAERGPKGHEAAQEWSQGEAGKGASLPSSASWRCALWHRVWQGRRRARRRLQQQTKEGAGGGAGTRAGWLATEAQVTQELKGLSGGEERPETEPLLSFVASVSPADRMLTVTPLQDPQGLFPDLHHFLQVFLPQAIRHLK
UniProt Q9Y6R4: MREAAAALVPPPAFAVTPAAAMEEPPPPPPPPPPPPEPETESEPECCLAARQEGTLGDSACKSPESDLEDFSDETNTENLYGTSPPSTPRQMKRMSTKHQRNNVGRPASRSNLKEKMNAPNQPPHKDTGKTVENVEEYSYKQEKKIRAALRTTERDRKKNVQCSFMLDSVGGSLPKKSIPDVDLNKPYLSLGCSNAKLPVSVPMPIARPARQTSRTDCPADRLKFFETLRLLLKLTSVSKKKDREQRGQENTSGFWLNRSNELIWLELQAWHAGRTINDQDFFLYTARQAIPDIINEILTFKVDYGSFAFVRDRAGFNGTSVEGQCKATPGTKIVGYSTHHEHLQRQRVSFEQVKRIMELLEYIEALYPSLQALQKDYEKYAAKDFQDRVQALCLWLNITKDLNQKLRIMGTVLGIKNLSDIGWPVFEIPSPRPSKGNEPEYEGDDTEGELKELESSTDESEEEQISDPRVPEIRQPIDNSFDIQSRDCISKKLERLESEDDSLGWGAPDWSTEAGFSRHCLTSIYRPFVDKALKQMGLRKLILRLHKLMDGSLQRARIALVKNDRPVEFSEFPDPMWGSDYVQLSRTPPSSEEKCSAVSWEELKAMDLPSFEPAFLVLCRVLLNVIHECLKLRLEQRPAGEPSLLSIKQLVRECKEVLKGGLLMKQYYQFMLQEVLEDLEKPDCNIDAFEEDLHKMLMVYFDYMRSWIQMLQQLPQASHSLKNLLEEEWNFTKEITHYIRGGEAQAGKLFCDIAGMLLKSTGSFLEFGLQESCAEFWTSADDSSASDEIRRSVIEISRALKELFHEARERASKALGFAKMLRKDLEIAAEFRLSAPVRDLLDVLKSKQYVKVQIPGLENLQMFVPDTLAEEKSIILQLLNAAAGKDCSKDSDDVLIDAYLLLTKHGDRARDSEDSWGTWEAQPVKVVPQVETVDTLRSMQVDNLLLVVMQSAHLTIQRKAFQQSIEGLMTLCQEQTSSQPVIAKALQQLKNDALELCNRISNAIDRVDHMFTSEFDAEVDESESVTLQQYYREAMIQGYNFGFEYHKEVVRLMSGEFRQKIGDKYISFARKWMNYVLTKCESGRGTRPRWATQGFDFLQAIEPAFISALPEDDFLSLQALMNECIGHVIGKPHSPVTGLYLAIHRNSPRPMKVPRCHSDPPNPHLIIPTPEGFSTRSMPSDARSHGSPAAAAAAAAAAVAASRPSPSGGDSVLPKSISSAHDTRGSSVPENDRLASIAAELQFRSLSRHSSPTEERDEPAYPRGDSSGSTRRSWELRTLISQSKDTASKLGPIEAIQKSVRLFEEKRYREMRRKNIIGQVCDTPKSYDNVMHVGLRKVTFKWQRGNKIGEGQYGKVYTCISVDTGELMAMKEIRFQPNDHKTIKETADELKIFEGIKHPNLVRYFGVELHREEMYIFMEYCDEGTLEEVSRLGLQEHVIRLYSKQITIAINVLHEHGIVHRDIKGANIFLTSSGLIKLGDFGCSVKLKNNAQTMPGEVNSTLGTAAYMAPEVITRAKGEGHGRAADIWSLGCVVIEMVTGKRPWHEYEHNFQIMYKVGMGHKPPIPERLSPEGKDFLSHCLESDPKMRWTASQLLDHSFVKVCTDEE
UniProt P61803: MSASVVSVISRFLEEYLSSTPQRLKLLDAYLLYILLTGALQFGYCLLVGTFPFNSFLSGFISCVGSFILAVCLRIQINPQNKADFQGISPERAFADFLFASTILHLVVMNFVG
UniProt P30203: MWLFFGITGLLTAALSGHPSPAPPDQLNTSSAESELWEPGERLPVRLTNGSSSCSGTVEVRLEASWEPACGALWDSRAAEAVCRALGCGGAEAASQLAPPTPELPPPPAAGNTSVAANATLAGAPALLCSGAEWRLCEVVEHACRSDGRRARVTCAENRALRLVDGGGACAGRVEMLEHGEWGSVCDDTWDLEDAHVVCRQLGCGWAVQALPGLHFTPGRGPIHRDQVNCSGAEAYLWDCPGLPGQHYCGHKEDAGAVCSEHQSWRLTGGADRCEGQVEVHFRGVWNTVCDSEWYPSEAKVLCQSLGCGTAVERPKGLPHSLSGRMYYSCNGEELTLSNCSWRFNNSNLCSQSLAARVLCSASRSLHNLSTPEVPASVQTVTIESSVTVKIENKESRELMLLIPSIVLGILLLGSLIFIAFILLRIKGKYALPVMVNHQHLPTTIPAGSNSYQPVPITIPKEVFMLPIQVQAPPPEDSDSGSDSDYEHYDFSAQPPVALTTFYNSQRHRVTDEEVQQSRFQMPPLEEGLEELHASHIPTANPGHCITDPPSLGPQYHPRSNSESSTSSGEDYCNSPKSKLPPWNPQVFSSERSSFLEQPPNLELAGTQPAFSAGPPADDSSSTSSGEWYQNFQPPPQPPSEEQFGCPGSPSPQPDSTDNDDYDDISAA
UniProt Q15843, whole entry: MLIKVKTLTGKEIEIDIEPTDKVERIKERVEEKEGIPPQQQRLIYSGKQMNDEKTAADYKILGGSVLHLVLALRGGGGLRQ
UniProt Q676U5: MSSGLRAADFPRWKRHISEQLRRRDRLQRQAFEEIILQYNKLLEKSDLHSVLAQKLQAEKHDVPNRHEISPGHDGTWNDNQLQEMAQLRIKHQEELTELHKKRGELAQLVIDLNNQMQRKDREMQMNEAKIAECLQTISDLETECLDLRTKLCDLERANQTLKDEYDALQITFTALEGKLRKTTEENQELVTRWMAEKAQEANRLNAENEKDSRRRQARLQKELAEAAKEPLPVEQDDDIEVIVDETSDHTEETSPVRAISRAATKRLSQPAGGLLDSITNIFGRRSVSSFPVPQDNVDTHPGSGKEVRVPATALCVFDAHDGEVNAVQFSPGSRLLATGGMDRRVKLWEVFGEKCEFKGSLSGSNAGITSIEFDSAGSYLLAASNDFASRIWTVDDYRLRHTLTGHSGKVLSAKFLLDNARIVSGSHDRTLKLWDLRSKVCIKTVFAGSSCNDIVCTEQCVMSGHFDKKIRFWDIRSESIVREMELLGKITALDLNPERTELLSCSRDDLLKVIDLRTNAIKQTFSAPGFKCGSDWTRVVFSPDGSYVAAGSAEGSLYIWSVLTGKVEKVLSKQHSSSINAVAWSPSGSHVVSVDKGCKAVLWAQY
UniProt P52747: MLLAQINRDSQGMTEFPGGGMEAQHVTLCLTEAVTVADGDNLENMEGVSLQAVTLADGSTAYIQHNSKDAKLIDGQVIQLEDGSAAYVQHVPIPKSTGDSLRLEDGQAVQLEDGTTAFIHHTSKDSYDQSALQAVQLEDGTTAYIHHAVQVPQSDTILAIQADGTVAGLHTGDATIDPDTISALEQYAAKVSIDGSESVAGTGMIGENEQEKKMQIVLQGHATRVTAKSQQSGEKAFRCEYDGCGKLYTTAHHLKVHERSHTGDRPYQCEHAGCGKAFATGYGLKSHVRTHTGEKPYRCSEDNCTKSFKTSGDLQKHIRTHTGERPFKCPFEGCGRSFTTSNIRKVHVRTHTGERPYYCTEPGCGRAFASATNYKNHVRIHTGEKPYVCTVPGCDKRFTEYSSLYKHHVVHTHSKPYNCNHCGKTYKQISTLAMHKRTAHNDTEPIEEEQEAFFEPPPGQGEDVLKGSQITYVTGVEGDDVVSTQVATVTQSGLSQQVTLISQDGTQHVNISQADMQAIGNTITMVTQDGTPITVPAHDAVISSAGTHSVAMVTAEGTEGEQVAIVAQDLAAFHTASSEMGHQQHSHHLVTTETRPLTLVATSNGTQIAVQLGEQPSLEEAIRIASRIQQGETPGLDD
UniProt Q14203, whole entry: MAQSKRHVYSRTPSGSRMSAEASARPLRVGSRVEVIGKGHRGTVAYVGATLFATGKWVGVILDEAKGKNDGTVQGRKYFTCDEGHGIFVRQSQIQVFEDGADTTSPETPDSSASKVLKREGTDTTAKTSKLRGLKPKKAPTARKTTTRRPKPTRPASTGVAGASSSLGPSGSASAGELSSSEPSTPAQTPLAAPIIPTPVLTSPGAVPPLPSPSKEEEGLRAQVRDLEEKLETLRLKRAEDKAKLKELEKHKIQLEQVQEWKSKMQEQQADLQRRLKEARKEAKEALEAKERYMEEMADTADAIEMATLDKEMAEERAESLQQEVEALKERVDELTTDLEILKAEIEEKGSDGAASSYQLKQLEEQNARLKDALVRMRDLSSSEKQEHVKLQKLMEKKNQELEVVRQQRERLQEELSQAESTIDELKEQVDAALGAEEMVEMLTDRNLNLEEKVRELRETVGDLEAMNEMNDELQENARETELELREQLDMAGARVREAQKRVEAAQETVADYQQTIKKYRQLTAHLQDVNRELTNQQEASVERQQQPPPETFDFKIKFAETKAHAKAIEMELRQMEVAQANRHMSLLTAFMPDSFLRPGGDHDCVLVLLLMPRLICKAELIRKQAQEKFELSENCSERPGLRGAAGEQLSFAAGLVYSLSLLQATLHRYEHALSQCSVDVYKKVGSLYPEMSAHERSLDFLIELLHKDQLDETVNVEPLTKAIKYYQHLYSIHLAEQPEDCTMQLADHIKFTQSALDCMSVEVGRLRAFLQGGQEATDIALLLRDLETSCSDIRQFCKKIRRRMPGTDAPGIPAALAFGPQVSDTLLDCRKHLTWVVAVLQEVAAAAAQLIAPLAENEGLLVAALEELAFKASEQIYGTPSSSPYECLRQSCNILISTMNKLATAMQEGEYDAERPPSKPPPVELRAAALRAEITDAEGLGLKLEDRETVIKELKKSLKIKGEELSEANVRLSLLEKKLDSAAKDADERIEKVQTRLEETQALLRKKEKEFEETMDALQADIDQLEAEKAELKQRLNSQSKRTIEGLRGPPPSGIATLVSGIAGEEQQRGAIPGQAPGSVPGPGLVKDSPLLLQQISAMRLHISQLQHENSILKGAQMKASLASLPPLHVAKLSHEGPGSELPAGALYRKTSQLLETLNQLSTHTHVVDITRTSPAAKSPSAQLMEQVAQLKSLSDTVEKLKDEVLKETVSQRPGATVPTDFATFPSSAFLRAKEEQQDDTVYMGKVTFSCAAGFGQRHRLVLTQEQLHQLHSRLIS
UniProt P17987, whole entry: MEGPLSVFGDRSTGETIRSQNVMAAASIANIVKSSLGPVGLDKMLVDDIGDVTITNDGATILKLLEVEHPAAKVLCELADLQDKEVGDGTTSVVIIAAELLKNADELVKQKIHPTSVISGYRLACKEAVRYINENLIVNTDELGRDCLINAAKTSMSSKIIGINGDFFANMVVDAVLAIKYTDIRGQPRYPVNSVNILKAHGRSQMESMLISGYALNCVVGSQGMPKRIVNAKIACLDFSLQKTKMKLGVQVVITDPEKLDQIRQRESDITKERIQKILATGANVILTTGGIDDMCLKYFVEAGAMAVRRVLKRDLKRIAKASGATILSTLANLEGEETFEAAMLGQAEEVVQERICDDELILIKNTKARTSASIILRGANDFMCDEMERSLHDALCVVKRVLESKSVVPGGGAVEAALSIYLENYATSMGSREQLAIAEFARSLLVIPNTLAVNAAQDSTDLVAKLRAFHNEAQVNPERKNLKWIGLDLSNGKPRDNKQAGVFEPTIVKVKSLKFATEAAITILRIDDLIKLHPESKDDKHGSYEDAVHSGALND
UniProt Q96A26: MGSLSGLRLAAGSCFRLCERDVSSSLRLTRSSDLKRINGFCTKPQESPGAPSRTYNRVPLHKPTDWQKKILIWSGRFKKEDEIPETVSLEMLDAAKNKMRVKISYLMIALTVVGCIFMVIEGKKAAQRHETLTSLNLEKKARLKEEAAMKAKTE

Compound: Nc1ncnc2c1ncn2[C@@H]1O[C@H](COP(=O)(O)OP(=O)(O)OP(=O)(O)O)[C@@H](O)[C@H]1O [adenosine triphosphate]
Assay: NP40-soluble protein abundance relative to vehicle (solubility fold change) (ratio); higher = more soluble protein in presence of ATP
Outline: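 Crude Jurkat lysate, prepared by Dounce homogenisation, was exposed to eight concentrations from 0.1 to 10 mM for 10 min at room temperature and then 3 min at 37 °C. Solubilisation used 0.8% NP40 with benzonase for 60 min at 4 °C, followed by ultracentrifugation and TMT labelling of the supernatant for LC-MS/MS. After vsn normalisation of intensities, each value is the fold change against the detergent-processed vehicle within each replicate, across three independent experiments.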

| Target | NP40-soluble protein abundance (concentration: 0.1mM) | NP40-soluble protein abundance (concentration: 0.5mM) |
| --- | --- | --- |
| F8VRH0 and related entries (UniProt Q15366) | 0.979 ± 0.029 | 1.02 ± 0.031 |
| F8W8I6 and related entries (UniProt P31483) | 1.03 ± 0.04 | 1.02 ± 0.024 |
| F5GXJ1 and related entries (UniProt O75251) | 0.941 ± 0.063 | 0.938 ± 0.12 |
| F2Z2X0 and related entries (UniProt O00746) | 1.09 ± 0.04 | 1.04 ± 0.024 |
| E9PF19 and related entries (UniProt Q9Y4P3) | 1.05 ± 0.053 | 1.1 ± 0.024 |
| F5H0R1 and related entries (UniProt Q9H6E5) | 0.994 ± 0.01 | 0.985 ± 0.013 |
| E9PQ56 and related entries (UniProt Q9UHX1) | 1.12 ± 0.026 | 1.31 ± 0.064 |
| F5H538 and related entries (UniProt Q9Y6R4) | 0.988 ± 0.0064 | 1.01 ± 0.048 |
| E9PN10 and related entries (UniProt O00559) | 0.98 ± 0.07 | 0.933 ± 0.07 |
| F1T0I1 and related entries (UniProt O15027) | 0.995 ± 0.031 | 1.1 ± 0.074 |
| E9PJM3 and related entries (UniProt Q9UK99) | 1.03 ± 0.072 | 0.989 ± 0.035 |
| F5GXX5 and related entries (UniProt P61803) | 0.8713 ± 0.0032 | 0.931 ± 0.044 |
| E7ESA6 and related entries (UniProt Q05397) | 1.34 ± 0.28 | 1.09 ± 0.18 |
| F6TB26 and related entries (UniProt Q9Y2W6) | 0.985 ± 0.022 | 1.01 ± 0.042 |
| F8WCF6 and related entries (UniProt P59998) | 0.968 ± 0.081 | 0.963 ± 0.048 |
| F5GX09 and related entries (UniProt Q5HYJ3) | 0.9711 ± 0.008 | 0.97 ± 0.011 |
| E9PNT2 and related entries (UniProt Q6ZUM4) | 1.02 ± 0.022 | 1.02 ± 0.02 |
| F8VYC4 and related entries (UniProt P0DJD1+P0DJD0+F8VYC4) | 1.01 ± 0.09 | 1.01 ± 0.027 |
| F8W8C2 and related entries (UniProt Q9HBM0) | 0.988 ± 0.033 | 0.997 ± 0.041 |
| F8VXU5 and related entries (UniProt Q9UBQ0) | 0.993 ± 0.072 | 0.96 ± 0.029 |
| E9PIK4 and related entries (UniProt O14683) | 1.08 ± 0.22 | 0.975 ± 0.17 |
| E7EQL8 and related entries (UniProt Q96RT7) | 0.965 ± 0.15 | 0.973 ± 0.15 |

Taken from the listing (eight entries):

| Target | NP40-soluble protein abundance (concentration: 0.1mM) | NP40-soluble protein abundance (concentration: 0.5mM) |
| --- | --- | --- |
| F5H0R1 and related entries (UniProt Q9H6E5) | 0.994 ± 0.01 | 0.985 ± 0.013 |
| E9PQ56 and related entries (UniProt Q9UHX1) | 1.12 ± 0.026 | 1.31 ± 0.064 |
| F5H538 and related entries (UniProt Q9Y6R4) | 0.988 ± 0.0064 | 1.01 ± 0.048 |
| E9PN10 and related entries (UniProt O00559) | 0.98 ± 0.07 | 0.933 ± 0.07 |
| F1T0I1 and related entries (UniProt O15027) | 0.995 ± 0.031 | 1.1 ± 0.074 |
| E9PJM3 and related entries (UniProt Q9UK99) | 1.03 ± 0.072 | 0.989 ± 0.035 |
| F5GXX5 and related entries (UniProt P61803) | 0.8713 ± 0.0032 | 0.931 ± 0.044 |
| E7ESA6 and related entries (UniProt Q05397) | 1.34 ± 0.28 | 1.09 ± 0.18 |

The results go on.

| Target | NP40-soluble protein abundance (concentration: 0.1mM) | NP40-soluble protein abundance (concentration: 0.5mM) |
| --- | --- | --- |
| F5H658 and related entries (UniProt Q14562) | 1.05 ± 0.039 | 1.29 ± 0.079 |
| G5E973 and related entries (UniProt P30203) | 1.01 ± 0.019 | 0.995 ± 0.036 |
| E9PL57 and related entries (UniProt Q15843) | 0.878 ± 0.14 | 0.88 ± 0.11 |
| G3V5T9 and related entries (UniProt P24941) | 1.01 ± 0.077 | 1.03 ± 0.052 |
| E7EVC7 and related entries (UniProt Q676U5) | 1.01 ± 0.052 | 1.02 ± 0.026 |
| E9PLV1 and related entries (UniProt Q9NQV6) | 1.01 ± 0.019 | 0.984 ± 0.07 |
| F5GYQ1 and related entries (UniProt P61421) | 1.05 ± 0.11 | 1.03 ± 0.053 |
| E7ERD7 and related entries (UniProt Q9UKU0) | 1.03 ± 0.027 | 1.07 ± 0.013 |
| F8WB06 and related entries (UniProt Q99700) | 0.959 ± 0.024 | 0.993 ± 0.067 |
| F6X3N5 and related entries (UniProt P62873) | 1.02 ± 0.017 | 0.985 ± 0.018 |
| E9PCD7 and related entries (UniProt Q9Y2E5) | 0.942 ± 0.078 | 0.927 ± 0.11 |
| F6XUP2 and related entries (UniProt O43861) | 1.01 ± 0.12 | 1.13 ± 0.16 |
| F8W8W7 and related entries (UniProt O43493) | 0.885 ± 0.23 | 0.88 ± 0.29 |
| E9PIV2 and related entries (UniProt P24001) | 0.902 ± 0.093 | 0.879 ± 0.15 |
| E9PGT6 and related entries (UniProt Q99627) | 0.993 ± 0.02 | 0.962 ± 0.039 |
| E7EN86 and related entries (UniProt P52747) | 1 ± 0.091 | 1.01 ± 0.045 |
| F8VU90 and related entries (UniProt Q9NYL4) | 0.823 ± 0.031 | 0.843 ± 0.042 |
| E7EX90 and related entries (UniProt Q14203) | 0.957 ± 0.032 | 0.986 ± 0.062 |
| F8W7U8 and related entries (UniProt P49959) | 1.03 ± 0.038 | 1.08 ± 0.059 |
| F5H136 and related entries (UniProt P17987) | 0.997 ± 0.054 | 1.01 ± 0.077 |
| F8W7Q4 and related entries (UniProt Q96A26) | 0.868 ± 0.16 | 0.897 ± 0.27 |
